Construct, isoform or probe ends are uncertain for at least one entry. For part of these data: Negatives hold for the conditions tested. For part of these data: Protein sequences can lack the tags named with them.

The values below come from publication PMC12063664.

For series [1], the target named is T1, NbARF18Lb-MBP (Nicotiana benthamiana) (UniProt A0A1U7X7H4).
T1 sequence (looked up, limits assumed): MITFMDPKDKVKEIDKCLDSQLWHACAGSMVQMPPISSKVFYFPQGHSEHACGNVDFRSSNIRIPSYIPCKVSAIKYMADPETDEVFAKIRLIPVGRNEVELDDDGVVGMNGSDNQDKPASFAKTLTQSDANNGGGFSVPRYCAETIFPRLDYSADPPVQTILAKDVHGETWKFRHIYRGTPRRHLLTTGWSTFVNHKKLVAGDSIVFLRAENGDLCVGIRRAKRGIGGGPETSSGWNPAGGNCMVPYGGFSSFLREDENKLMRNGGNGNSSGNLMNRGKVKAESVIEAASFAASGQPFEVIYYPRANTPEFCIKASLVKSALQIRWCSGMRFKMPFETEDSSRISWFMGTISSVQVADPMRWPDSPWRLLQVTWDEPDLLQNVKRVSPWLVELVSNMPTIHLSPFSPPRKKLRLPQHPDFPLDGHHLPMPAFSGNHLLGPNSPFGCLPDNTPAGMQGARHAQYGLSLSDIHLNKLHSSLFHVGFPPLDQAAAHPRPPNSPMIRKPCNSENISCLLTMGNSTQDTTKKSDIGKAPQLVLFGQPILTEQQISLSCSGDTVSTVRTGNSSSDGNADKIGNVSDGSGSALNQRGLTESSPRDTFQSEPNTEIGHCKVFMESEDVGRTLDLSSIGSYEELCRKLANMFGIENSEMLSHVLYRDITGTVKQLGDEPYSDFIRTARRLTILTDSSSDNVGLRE
Put plainly: EMSA. The following applies: EMSA: about 300 ng fusion protein with 30 ng biotin-labeled probe, Beyotime chemiluminescent EMSA kit; pH and temperature not stated; recombinant protein; protein details: MBP (pMAL-c5x); label: biotin. On the technique in general: Mobility shift assays separate free from complexed probe on a gel.

Series [2] deals with NbARF18La-His-SUMO (Nicotiana benthamiana). Put plainly: EMSA. The following applies: EMSA: about 300 ng fusion protein with 30 ng biotin-labeled probe, Beyotime chemiluminescent EMSA kit; pH and temperature not stated; recombinant protein; protein details: His-SUMO (pET28a-SUMO); label: biotin.
For series [3], the target named is T1, NbARF18Lb-MBP (Nicotiana benthamiana). Briefly: competition with a labelled probe. The following applies: 10-, 20-, 50-fold excess over N4, reduced binding; EMSA: about 300 ng fusion protein with 30 ng biotin-labeled probe, Beyotime chemiluminescent EMSA kit; pH and temperature not stated; recombinant protein; protein details: MBP (pMAL-c5x).
The test system of series [4] is NbARF18La-His-SUMO (Nicotiana benthamiana). Put plainly: competition with a labelled probe. The settings on record: 10-, 20-, 50-fold excess over N4; EMSA: about 300 ng fusion protein with 30 ng biotin-labeled probe, Beyotime chemiluminescent EMSA kit; pH and temperature not stated; recombinant protein; protein details: His-SUMO (pET28a-SUMO).
Series [5] has as its system NbMYB42-GST (Nicotiana benthamiana). Briefly: EMSA. The following applies: EMSA: about 300 ng fusion protein with 30 ng biotin-labeled probe, Beyotime chemiluminescent EMSA kit; pH and temperature not stated; recombinant protein; protein details: GST (pGEX-6P-1); label: biotin.
Series [6] has the same test system. Put plainly: competition with a labelled probe. The following applies: 10-, 20-, 50-fold excess over N1, shifted band gradually disappeared; EMSA: about 300 ng fusion protein with 30 ng biotin-labeled probe, Beyotime chemiluminescent EMSA kit; pH and temperature not stated; recombinant protein; protein details: GST (pGEX-6P-1).

As for “GGACAATTTTTCTTTATTTTCTTTTTAAAAAACAGTAAAATAACG (double strand) [NbMYB42 promoter P2 mutant probe]”, the binding result in series [1] and in series [2] was “no binding” in each case.

Turning to “GGACAATTTTTCTTTATTTTCTTTTTTGTCTCCAGTAAAATAACG (double strand) [NbMYB42 promoter P2 probe]”, the binding result in series [1] and in series [2] was “binds” throughout.

For “GGACAATTTTTCTTTATTTTCTTTTTTGTCTCCAGTAAAATAACG (double strand) [NbMYB42 promoter P2 unlabeled competitor]”, the binding result in series [3] and in series [4] was “binds” each time.

“GTGAGGGTTGAAGAAAAAAAAAAAAAAAAAAGCCCGCTTACTTTTTTTGG (double strand) [NbPAL6 promoter P3 mutant probe (mProbe)]”: the binding result in series [5] is reported as “no binding”.

For “GTGAGGGTTGAAGGGTGGTTGTTGAGAGGAAGCCCGCTTACTTTTTTTGG (double strand) [NbPAL6 promoter P3 probe]”, the binding result in series [5] is recorded as “binds”.

“GTGAGGGTTGAAGGGTGGTTGTTGAGAGGAAGCCCGCTTACTTTTTTTGG (double strand) [NbPAL6 promoter P3 unlabeled competitor]”: the binding result in series [6] is reported as “binds”.
